In PubChem BioAssay AID1487 (National Center for Advancing Translational Sciences (NCATS), 2009) one finds AC50 data, which are given here for 55 compounds.

This experiment in a line: qHTS Assay for Modulators of Lamin A Splicing. Conditions: HeLa LMNA splicing GFP/RFP minigene ratio, 48 h. The procedure, abridged: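 S3 HeLa stable clones carrying a lamin A-EGFP splicing minigene plus DsRed2 were seeded at 600 cells/well in Opti-MEM with 2% FBS, pin-dosed and incubated 48 h at 37°C. Acumen cytometry (488 nm) gave the GFP/RFP total-intensity ratio.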
Background: Quantitative high-throughput screening tests each substance at several concentrations.

[1] abbreviates: measured here: GFP splicing reporter channel.
[2] abbreviates: measured here: RFP viability control channel.

The list shows a part of the results. Shown are side measurements of this screen, not its main read-out; they come without a call. The list favours compounds with an active or inconclusive main result. Potencies come from curve fits of mixed quality, noted in brackets.

For the compound `O=C(Nc1ccc(N2CCCCC2)c(Cl)c1)c1ccc2c(c1)OCCO2`, the concentration at half-maximal activity (AC50) was 11.2 µM [rising, partial curve, poor fit] under setting [1] and 17.8 µM [rising, single point] under setting [2].
For the compound `COc1ccc(CNc2ncnc3ccc(-c4ccc5c(c4)OCO5)cc23)c(OC)c1`, the AC50 under setting [1] is 10 µM [falling, partial curve].
For the compound `N#CCSc1nc2sc3c(c2c(=O)n1C1CCCCC1)CCCC3`, the AC50 under setting [1] was 2.51 µM [rising, partial curve, poor fit].
In the case of `COc1ccc(-c2nnn(CC(=O)N(CCO)C(C(=O)NC3CCCC3)c3ccncc3)n2)cc1` (stereo unspecified), the AC50 under setting [1] was 0.794 µM [falling, full curve, poor fit].
Turning to `CN(C(=O)CSc1nc2ccccc2n1Cc1cccc(C(F)(F)F)c1)c1ccccc1`, the AC50 under setting [2] was 31.6 µM [rising, single point].
Regarding `COc1cccc(-c2cc(C(=O)Nc3nc4ccccc4s3)c3ccccc3n2)c1`, the AC50 under setting [2] was 20 µM [rising, partial curve, poor fit].
For `CCOC(=O)c1c(NC(=O)Cn2nnc3ccccc32)sc2c1CCC(C)C2` (stereo unspecified), the AC50 under setting [2] is 12.6 µM [rising, partial curve].
For `CN(c1ccccc1)C1CCCCC1NS(=O)(=O)c1ccc(Cl)cc1` (stereo unspecified), the concentration at half-maximal activity (AC50) runs as follows: under setting [1], 15.8 µM [rising, single point]; under setting [2], 14.1 µM [rising, partial curve].
On to `CS(=O)(=O)N1CCC(Oc2ccccc2C(=O)N2CCCCC2CO)CC1` (stereo unspecified), for which the concentration at half-maximal activity (AC50) under setting [2] was 0.708 µM [falling, partial curve, poor fit].
In the case of `O=C(CSc1nnc(NC(=O)c2ccccc2F)s1)Nc1ccccc1F`, the concentration at half-maximal activity (AC50) is 0.0398 µM [falling, full curve, poor fit] under setting [1] and 2.24 µM [falling, full curve, poor fit] under setting [2].
Take `Cc1ccc2c(c1)c1ncnc(N3CCN(c4ccccc4)CC3)c1n2C`: the AC50 was 12.6 µM [rising, partial curve] under setting [1] and 25.1 µM [rising, single point] under setting [2].
`Cc1ccc(OCCNC(=O)c2cncc(Br)c2)cc1C`: under setting [2], the concentration at half-maximal activity (AC50) was 35.5 µM [falling, single point].
As for `COc1ccccc1CNC(=O)c1ccc2nc3[nH]c4ccccc4c3nc2c1`, the AC50 under setting [2] is 1.78 µM [rising, full curve, poor fit].
Regarding `Cc1nn(-c2cccc(Cl)c2)c2c1C(c1ccncc1)C(C#N)=C(N)O2` (stereo unspecified), the half-maximal activity concentration (AC50) under setting [1] is 22.4 µM [rising, single point] and the half-maximal activity concentration (AC50) under setting [2] is 35.5 µM [rising, single point].
Consider `CC(C)NC(=O)C1COc2ccccc2O1` (stereo unspecified), for which the concentration at half-maximal activity (AC50) under setting [1] was 35.5 µM [falling, single point].
As to `Cc1cc2ccccc2n2c(SCC(=O)Nc3ccc(S(=O)(=O)N4CCCCC4)cc3)nnc12`, the AC50 under setting [2] is 14.1 µM [rising, single point].
Still for that read-out and setting: to `Cc1ccc(-c2nc3ccccc3s2)cc1S(=O)(=O)N1CCCC1` belongs 35.5 µM [rising, single point].
Regarding `COc1ccc(CNC(=O)c2cc(C)nc3c2c(C)nn3-c2cccc(Cl)c2C)cc1`, the AC50 under setting [1] was 35.5 µM [falling, single point] and the half-maximal activity concentration (AC50) under setting [2] is 25.1 µM [falling, single point].
Take `O=C(CSc1ncnc2c1oc1ccccc12)NCc1ccco1`: the half-maximal activity concentration (AC50) under setting [2] was 5.62 µM [rising, single point].
Still for that read-out and setting: to `O=C(Nc1ccc(O)c(-c2nc3ccccc3o2)c1)C1(c2ccc(Br)cc2)CCCC1` belongs 0.355 µM [falling, partial curve, poor fit].
Turning to `CCOC(=O)c1nnc(-c2ccccc2)nc1Sc1c(Cl)cccc1Cl`, the AC50 under setting [1] is 14.1 µM [falling, single point] and the AC50 under setting [2] was 25.1 µM [falling, single point].
As to `COc1ccc(C2SCCN2C(=S)Nc2ccc(F)cc2)cc1` (stereo unspecified), under setting [2], the half-maximal activity concentration (AC50) was 20 µM [rising, single point].
Same read-out and setting: the result for `CCCN(Cc1ccccc1)C(=O)Nc1ccc2c(c1)nnn2C` reads 17.8 µM [rising, single point].
For `CCOC(=O)c1sc(NC(=O)c2cccc(S(=O)(=O)N3CCN(C)CC3)c2)cc1C`, the AC50 under setting [1] is 12.6 µM [rising, single point].
As for `COc1cc(CNc2ccc3[nH]c(=O)[nH]c3c2)cc(Cl)c1OCc1ccccc1F`, the concentration at half-maximal activity (AC50) under setting [1] is 1.41 µM [falling, full curve, poor fit] and the AC50 under setting [2] is 35.5 µM [falling, partial curve, poor fit].
On to `COc1ccc(C2C(C(=O)c3ccccc3)=C(C)Nc3nc4ccccc4n32)cc1OC` (stereo unspecified), for which the half-maximal activity concentration (AC50) is, setting by setting: under setting [1], 3.98 µM [falling, full curve, poor fit]; under setting [2], 2.51 µM [falling, full curve].
`NC(CSCC(=O)O)C(=O)O` (stereo unspecified): the AC50 under setting [2] is 35.5 µM [falling, single point].
Same read-out and setting: to `Cc1ccc(-n2c(Cl)c(Cl)nc(Cl)c2=O)cc1` belongs 0.631 µM [rising, partial curve, poor fit]; to `O=C(CSc1nc2ccccc2n1-c1ccccc1)Nc1ncc(Cl)cc1Cl`, 1.12 µM [rising, full curve, poor fit].
Regarding `O=C(CSC1=N/C(=C/c2ccco2)C(=O)N1c1ccc(OC(F)F)cc1)NC1CCS(=O)(=O)C1` (stereo unspecified), the AC50 under setting [1] is 3.16 µM [falling, partial curve].
For `CCOC(=O)c1sc2nc(C3CC3)cc(-c3ccc(F)cc3)c2c1N`, the AC50 under setting [2] was 12.6 µM [falling, partial curve, poor fit].
As for `COC(=O)c1ccccc1NC(=O)C1CC(c2ccc(F)cc2)=NO1` (stereo unspecified), the AC50 was 1.58 µM [rising, partial curve, poor fit] under setting [1] and 14.1 µM [rising, single point] under setting [2].
In the case of `COc1ccc(CNc2nc(-c3ccccc3OC)nc3ccccc23)c(OC)c1`, the concentration at half-maximal activity (AC50) is, setting by setting: under setting [1], 25.1 µM [falling, single point]; under setting [2], 35.5 µM [falling, single point].
`CN(C)c1ncc2ncc(=O)n(CCc3ccccc3)c2n1`: the AC50 was 7.08 µM [falling, partial curve] under setting [1] and 10 µM [falling, partial curve, poor fit] under setting [2].
For `CC(C)(C)c1ccc(OCC(=O)Nc2ccc3c4c(cccc24)C(=O)NC3=O)cc1`, the half-maximal activity concentration (AC50) under setting [2] is 11.2 µM [falling, partial curve].
Regarding `CCOC(=O)N1CCN(Cc2nc(-c3cccs3)no2)CC1`, the concentration at half-maximal activity (AC50) under setting [2] is 0.224 µM [falling, partial curve, poor fit].
The same measure, in the same setting: the result for `O=C(NCc1ccc(F)cc1)c1ccc(S(=O)(=O)Nc2cccc(C(F)(F)F)c2)cc1` reads 10 µM [rising, partial curve].
For `COc1cccc(C(=O)COc2ccccc2-c2ccccc2)c1`, the AC50 was 15.8 µM [rising, single point] under setting [1] and 31.6 µM [rising, single point] under setting [2].
As for `CC(=O)Nc1cccc(Oc2ncnc3scc(-c4ccc(C(C)C)cc4)c23)c1`, the AC50 under setting [1] is 14.1 µM [rising, single point] and the half-maximal activity concentration (AC50) under setting [2] is 15.8 µM [rising, partial curve].
Take `COc1ccc(/C=C/C(=O)c2ccc(Cl)cc2)c(OC)c1`: the AC50 runs as follows: under setting [1], 35.5 µM [falling, single point]; under setting [2], 35.5 µM [falling, single point].
Take `COc1ccc2[nH]cc(CCNc3ncncc3-c3cccc(NS(C)(=O)=O)c3)c2c1`: the half-maximal activity concentration (AC50) under setting [1] is 7.94 µM [falling, partial curve].
With `C=CCN=C(CC)C1=C(O)CCCC1=O`, under setting [2], the AC50 is 35.5 µM [rising, single point].
The same measure, in the same setting: to `Cc1ccc2nsnc2c1NC(=O)COc1ccccc1` belongs 2 µM [falling, partial curve, poor fit].
For `Cc1ccc(C(=O)NNC(=O)c2ccc(SCC3CCCO3)c([N+](=O)[O-])c2)cc1` (stereo unspecified), the half-maximal activity concentration (AC50) runs as follows: under setting [1], 11.2 µM [rising, partial curve]; under setting [2], 11.2 µM [rising, partial curve].
With `CC(C)NC(=O)NC(=O)CSc1nnc(COc2ccccc2F)n1C(C)C1CC2CCC1C2` (stereo unspecified), the AC50 is 25.1 µM [falling, single point] under setting [1] and 22.4 µM [falling, partial curve] under setting [2].
Consider `C/C(CC(=O)Nc1cccnc1)=N\NC(=O)c1ccc([N+](=O)[O-])c(Cl)c1`, for which the half-maximal activity concentration (AC50) under setting [2] is 35.5 µM [falling, partial curve, poor fit].
Regarding `COc1ccc(NC(=O)CN2C(=O)CCc3cc(S(=O)(=O)N4CCOCC4)ccc32)cc1Cl`, the half-maximal activity concentration (AC50) by setting is: under setting [1], 0.0224 µM [rising, full curve, poor fit]; under setting [2], 0.0251 µM [rising, full curve, poor fit].
Take `COc1cccc(Nc2nnc(SCn3nnc4ccccc4c3=O)s2)c1`: the concentration at half-maximal activity (AC50) under setting [1] was 31.6 µM [rising, single point].
`Cc1ccc(C(NC(=O)N2CC(C)OC(C)C2)C(Cl)Cl)cc1F` (stereo unspecified): under setting [2], the AC50 was 35.5 µM [rising, single point].
`NC(=O)COC(=O)/C=C/c1ccc2ccccc2n1`: the concentration at half-maximal activity (AC50) under setting [2] was 25.1 µM [rising, single point].
On to `NCCCCN`, for which the AC50 under setting [1] was 5.62 µM [falling, partial curve, poor fit].
On to `Cc1nc(N2CCN(Cc3ccccc3)CC2)c(C#N)c2c1COC(C)(C)C2`, for which the AC50 under setting [2] is 20 µM [rising, single point].
In the case of `Cn1cc([N+](=O)[O-])c(C(=O)Nc2cc(Oc3cccnc3)cc([N+](=O)[O-])c2)n1`, the concentration at half-maximal activity (AC50) is 3.98 µM [falling, single point] under setting [1] and 5.62 µM [falling, single point] under setting [2].
Consider `CCOc1ccc(S(=O)(=O)N2CCN(Cc3ccccc3)CC2)c2cccnc12`, for which the AC50 runs as follows: under setting [1], 22.4 µM [rising, partial curve]; under setting [2], 20 µM [rising, partial curve].
On to `COc1ccc2cc(C(=O)C3CCCN(Cc4cnc(N5CCOCC5)s4)C3)ccc2c1` (stereo unspecified), for which the half-maximal activity concentration (AC50) under setting [1] is 10 µM [falling, partial curve, poor fit] and the AC50 under setting [2] is 10 µM [falling, partial curve, poor fit].

One may read the AC50 as the concentration giving half of the maximal activity seen.
